Experimental data: patent publication WO1999010379A1
Results are given in words; binding and its absence hold for the method and conditions named. Some results given as binding are weak or reduced against the parent protein; the word gives no strength.

How the values were obtained:
[1] = molecular target: MUC1 peptide Thr-Ser-Ala-Pro-Asp-Thr-Arg-Pro-Ala-Pro-Gly-Ser-Thr ("the crystal peptide"); experiment: X-ray crystal structure, legend of Figure 5
[2] = molecular target: MUC1 peptide Thr-Ser-Ala-Pro-Asp-Thr-Arg-Pro-Ala-Pro-Gly-Ser-Thr ("the crystal peptide"); experiment: X-ray crystal structure of the Fab-peptide complex
[3] = molecular target: MUC1 peptide Thr-Ser-Ala-Pro-Asp-Thr-Arg-Pro-Ala-Pro-Gly-Ser-Thr ("the crystal peptide"); experiment: X-ray crystal structure, legend of Figure 15
[4] = molecular target: MUC1 peptide Thr-Ser-Ala-Pro-Asp-Thr-Arg-Pro-Ala-Pro-Gly-Ser-Thr ("the crystal peptide"); experiment: X-ray crystal structure, legend of Figure 4

- binding [1]: binds
- binding [2]: binds
- binding [3]: binds
- binding [4]: binds
B1: SM3 Fab fragment (obtained by papain digestion of SM3) (Fab, V domains shown)
VH: QVQLQESGGGLVQPGGSMKLSCVASGFTFSNYWMNWVRQSPEKGLEWVAEIRLKSNNYATHYAESVKGRFTISRDDSKSSVYLQMNNLRAEDTGIYYCTGVGQFAYWGQGTTVTVS
VL: DIVVTQESALTTSPGETVTLTCRSSTGAVTTSNYANWVQEKPDHLFTGLIGGTNNRAPGVPARFSGSLIGDKAALTITGAQTEDEAIYFCALWYSNHWVFGGGTKLTVLG
